Measured values from patent US20250101063A1 (Sichuan Gooddoctor Panxi Pharmaceutical Co., Ltd., priority 2022, published 2025).
Where no end group is shown, it is not given here. [ ]: non-standard residue; d: D form.

What was measured:
[1] = general procedure: Fmoc solid-phase peptide synthesis; 2-Chlorotrityl Chloride Resin (0.73 mmol/g); DIC/HOBt; conditions: for step yield: purification step; for final purity (method not given): whole synthesis, scale of the general procedure 7.71 g resin (SD=0.73 mmol/g)
[2] = general procedure: Fmoc solid-phase peptide synthesis; 2-Chlorotrityl Chloride Resin; DIC/HOBt; conditions: whole synthesis, scale of the general procedure 7.71 g resin (SD=0.73 mmol/g)

| Substance | step yield [1] | final purity (method not given) [1] | crude yield [2] | step yield ([1]; purification yield) |
| --- | --- | --- | --- | --- |
| KEPVP[dQ]AKPRKVAAQ | 59.8% | 100% | – | – |
| RKDVYEPVPQAK | 48.5% | 98.83% | – | – |
| NPVPQAK | 58.3% | 99.53% | – | – |
| KEPVPQAAPRKVAAQ | 52.6% | 99.72% | – | – |
| KEPVPQ[dA]KPRKVAAQ | 86.5% | 100% | – | – |
| KEPVPQAK | 26.1% | 98.22% | – | – |
| RKDVYPVPQ | 57.1% | 98.08% | – | – |
| KEGVPQAKGRKVAAQ | 53.4% | 100% | – | – |
| AEPVPQAKPRKVAAQ | 43.7% | 100% | – | – |
| KEPVPQAKPRKVAA[dQ] | 44.2% | 99.03% | – | – |
| KEGVGQAKGRKVAAQ | 59.1% | 100% | – | – |
| Pro-Val-Pro-Gln (PVPQ; printed: Pro-Val-Pro-Gln) | 48.7% | 100% | – | – |
| EPVPQAKPRK | 51.1% | 99.00% | – | – |
| EPVPAAK | 39.7% | 98.55% | – | – |
| [dK]EPVPQAKPRKVAAQ | 52.4% | 100% | – | – |
| KEPVPQAKP[dR]KVAAQ | 63.4% | 100% | – | – |
| EAVPQAK | – | 98.45% | – | – |
| Pro-Arg-Lys-Val (PRKV; printed: Pro-Arg-Lys-Val) | 17.7% | 97.47% | – | – |
| KEPVPQ | 91.8% | 98.83% | – | – |
| KAPVPQAKPRKVAAQ | 45.8% | 99.36% | – | – |
| KEP[dV]PQAKPRKVAAQ | 54.8% | 99.74% | – | – |
| Pro-Val-Pro-Glu-Ala (PVPEA; printed: Pro-Val-Pro-Glu-Ala) | 47.9% | 100% | – | – |
| EPVPEAK | – | 97.91% | – | – |
| KEGVGQAKPRKVAAQ | 59.4% | 100% | – | – |
| PVPQAKPR | – | 99.47% | – | – |
| Lys-Val-Ala-Ala (KVAA; printed: Lys-Val-Ala-Ala) | 27.0% | 98.17% | – | – |

| Substance | step yield [1] | final purity (method not given) [1] | crude yield [2] | step yield ([1]; purification yield) |
| --- | --- | --- | --- | --- |
| KE[dP]VPQAKPRKVAAQ | 54.3% | 100% | – | – |
| KEPVPQAKPAKVAAQ | 42.0% | 98.06% | – | – |
| KEPVPQAKPRKV[dA]AQ | 46.3% | 97.94% | – | – |
| KEPIPQAKPRKVAAQ | 39.7% | 99.54% | – | – |
| EP[dV]PQAK | 48.5% | 98.51% | – | – |
| KEPVPAAKPRKVAAQ | 51.3% | 99.42% | – | – |
| KEPVPQA[dK]PRKVAAQ | 71.5% | 100% | – | – |
| PVPQAK | 45.2% | 99.87% | – | – |
| PVPQAKP | – | 99.42% | – | – |
| EGVPQAK | – | 97.45% | – | – |
| Pyro-Glu-Leu-Lys-Glu-Pro-Val-Pro-Gln-Ala-Lys-Pro-Arg-Lys-Val-Ala-Ala-Gln (ELKEPVPQAKPRKVAAQ; N-terminal pyroglutamate; acetate salt; printed: Glu-Leu-Lys-Glu-Pro-Val-Pro-Gln-Ala-Lys-Pro-Arg-Lys-Val-Ala-Ala-Gln) | 48.6% | 99.86% | – | – |
| KEPVPQAKPRK[dV]AAQ | 73.3% | 100% | – | – |
| Glu-Pro-Val-Pro (EPVP; printed: Glu-Pro-Val-Pro) | 57.0% | 99.01% | – | – |
| EPVPQAKP | – | 98.17% | – | – |
| EPVPQAKPRKVA | – | 97.89% | – | – |
| KEPVGQAKPRKVAAQ | 38.5% | 99.12% | – | – |
| K[dE]PVPQAKPRKVAAQ | 53.8% | 100% | – | – |
| VPPKEPVPQAKPRKVAAQ | 37.9% | 100% | – | – |
| KEPVPQAKPR | 25.7% | 97.47% | – | – |
| Pro-Val-Pro-Gln-Ala (PVPQA; printed: Pro-Val-Pro-Gln-Ala) | – | 99.93% | – | – |
| Pro-Gln-Ala-Lys (PQAK; printed: Pro-Gln-Ala-Lys) | 22.0% | 98.20% | – | – |
| KEPVPQAKPRKVAAN | 42.8% | 98.79% | – | – |
| KEPVPQAKPR[dK]VAAQ | 67.1% | 100% | – | – |
| KEPVGQAKGRKVAAQ | 53.2% | 100% | – | – |
| Ala-Lys-Pro-Arg (AKPR; printed: Ala-Lys-Pro-Arg) | 17.3% | 98.79% | – | – |
| EPVGQAK | – | 97.89% | – | – |

| Substance | step yield [1] | final purity (method not given) [1] | crude yield [2] | step yield ([1]; purification yield) |
| --- | --- | --- | --- | --- |
| KEGVPQAKPRKVAAQ | 50.3% | 100% | – | – |
| EPV[dP]QAK | 45.6% | 98.06% | – | – |
| KEPVPQAKPRAVAAQ | 42.3% | 99.73% | – | – |
| SSEDIKEPVPQ | 49.9% | 98.08% | – | – |
| KEPVPQAKPRKVA[dA]Q | 37.3% | 99.12% | – | – |
| RKDVYKEPVPQAKPRKVAAQ | 27.4% | 100% | – | – |
| KEPV[dP]QAKPRKVAAQ | 48.6% | 100% | – | – |
| Pro-Val-Pro-Ile-Ala (PVPIA; printed: Pro-Val-Pro-Ile-Ala) | 60.8% | 99.87% | – | – |
| KEPVPQAKGRKVAAQ | 55.5% | 100% | – | – |
| EPVPQAR | 42.3% | 98.98% | – | – |
| H-KEPVPQAKPRKVAAQ-OH | 59.5% | 99.44% | 74.7% | 59.5% |
| Lys-Glu-Pro-Val-Pro (KEPVP; printed: Lys-Glu-Pro-Val-Pro) | 42.8% | 99.94% | – | – |
| Pro-Val-Pro-Ala (PVPA; printed: Pro-Val-Pro-Ala) | 60.7% | 100% | – | – |
| EPVPQAKPRKV | – | 98.46% | – | – |
| KEPVPQAKPRKVAAA | 53.5% | 99.68% | – | – |
| Gln-Ala-Lys-Pro (QAKP; printed: Gln-Ala-Lys-Pro) | 22.9% | 96.01% | – | – |
| KEPVPQAKPRKAAAQ | 39.2% | 99.10% | – | – |
| EPAPQAK | 56.9% | 99.14% | – | – |
| EPVPQAKPR | – | 98.76% | – | – |
| Arg-Lys-Val-Ala (RKVA; printed: Arg-Lys-Val-Ala) | 32.5% | 97.48% | – | – |
| KEPVAQAKPRKVAAQ | 46.5% | 99.54% | – | – |
| KEPAPQAKPRKVAAQ | 51.8% | 99.90% | – | – |
| VPYKEPVPQAKPRKVAAQ | 39.7% | 99.40% | – | – |
| DPVPQAK | – | 99.69% | – | – |
| Val-Ala-Ala-Gln (VAAQ; printed: Val-Ala-Ala-Gln) | 53.0% | 100% | – | – |
